Measurements from PMC7819943, “Rice protein-binding microarrays: a tool to detect cis-acting elements near promoter regions in rice”.
The other results are listed elsewhere or left out.

Chains of the proteins cited; added tags and fusions are not shown.
UniProt Q0JBA9, entry or part of it: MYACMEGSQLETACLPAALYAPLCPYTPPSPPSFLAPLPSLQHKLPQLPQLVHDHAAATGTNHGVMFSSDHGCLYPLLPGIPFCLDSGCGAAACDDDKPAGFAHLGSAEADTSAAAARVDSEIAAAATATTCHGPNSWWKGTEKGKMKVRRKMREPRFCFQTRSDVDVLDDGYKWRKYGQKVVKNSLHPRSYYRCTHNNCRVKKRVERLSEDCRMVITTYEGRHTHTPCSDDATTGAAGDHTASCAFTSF

Each sequence was assayed against OsWRKY34 (Oryza sativa, UniProt Q0JBA9 1-250) (assay: protein-binding microarray (RPBM); PBS, 2% BSA, 51.3 ng/ul salmon testes DNA, 50 uM zinc acetate, 200 nM TF, 25 C, 1 h; high values mean tight binding). Conditions: protein: recombinant; tags: N-terminal polyhistidine and DsRed monomer fusion (pET32a); label: CyDye5-dUTP incorporated in the synthesized complementary strand; 3' TTTTT single-stranded linker to array surface; dsDNA, one strand shown.
Procedure, shortened: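 Using Ni–NTA, transcription factors fused N-terminally to polyhistidine and DsRed were purified after expression in E. coli BL21-CodonPlus. These were incubated at 200 nM with a blocked, double-stranded custom Agilent array for 1 h at 25 °C in a buffer containing 50 µM zinc acetate, and the array was washed. The binding signal is per-feature fluorescence intensity (arbitrary units) on an Axon 4000B scanner.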

Sequence	binding signal
CATGTTCATCGGAGAGAGGGTTATTTTGGTCAGTTGAAGTCGGAGTCACCTAGTGCAG	8350 fluorescence intensity (a.u.)
ATCCCCATGCTTGCGCACCACTCCCGGCCACATCCCGCGCCGGAGTCACCTAGTGCAG	13800 fluorescence intensity (a.u.)
ATCTAATCAAGCACAACTCCAGTTCCTGCTTACTGCCACCCGGAGTCACCTAGTGCAG	8830 fluorescence intensity (a.u.)
ATGTGAGTTTTTTTTTTGCAATGGAATATTTCGTTCACTACGGAGTCACCTAGTGCAG	9140 fluorescence intensity (a.u.)
GGTCCATTGATCGAATCTACACACTCGCTATGTTTGCTACCGGAGTCACCTAGTGCAG	8150 fluorescence intensity (a.u.)
CCGCAGAGCCTGTCCTTGCACCGCTTCACCGCGCCGAACACGGAGTCACCTAGTGCAG	8940 fluorescence intensity (a.u.)
TCTATATTTTTGCTATTTTCCATTAAAATCATATTATTTCCGGAGTCACCTAGTGCAG	8940 fluorescence intensity (a.u.)
GTGATTTCTGAGTTTCGGTTTATGTTTCTTGCCTCTGACGCGGAGTCACCTAGTGCAG	12500 fluorescence intensity (a.u.)
CCACCTCGGTACATGTTCTACATGTTGCGCGTATTTGATCCGGAGTCACCTAGTGCAG	9360 fluorescence intensity (a.u.)
TTGCTGATGGCGCTGGTTTACTGCTCCTGAGGGGTAGGGACGGAGTCACCTAGTGCAG	9110 fluorescence intensity (a.u.)
TATAGCTGTCCTCGAACCTATTCCACCGCCACGCGAGCAACGGAGTCACCTAGTGCAG	8800 fluorescence intensity (a.u.)
ATCCTATAGCATGTGATAAACCCATTACTACAAAACATCACGGAGTCACCTAGTGCAG	8200 fluorescence intensity (a.u.)
GCATGATATGATTCCTCCTGCTTTGATTCCAGTACATGTCCGGAGTCACCTAGTGCAG	8840 fluorescence intensity (a.u.)
GAGTGACTCTCTCTTCCATACATTGTCCCAAATATTATTTCGGAGTCACCTAGTGCAG	8970 fluorescence intensity (a.u.)
TGACTGACAACTTGGTCTTTTTTTTTTGATTTTGTTCTTTCGGAGTCACCTAGTGCAG	11900 fluorescence intensity (a.u.)
GCATTTTTTACACAGGGAGCCACCATCATTGTCATCAGAACGGAGTCACCTAGTGCAG	8970 fluorescence intensity (a.u.)
AACACTACTTGTCCTTTTCACATTGCATCATCGTTGAAACCGGAGTCACCTAGTGCAG	9500 fluorescence intensity (a.u.)
AGCCCATTAAGAATCTAGCCTGCGAGCCAACCGAGAAAATCGGAGTCACCTAGTGCAG	8060 fluorescence intensity (a.u.)
ATCCAGTATAGTGTTGGTGATCTTTTGTGGCTATTTAGTTCGGAGTCACCTAGTGCAG	8590 fluorescence intensity (a.u.)
GTGCACCGCCGATTCTCTTATCACTCTTTTTTATCAATATCGGAGTCACCTAGTGCAG	8520 fluorescence intensity (a.u.)
CTTCTTCTATATCTGTAATCTTTCCTTATCTCCTCCCATGCGGAGTCACCTAGTGCAG	8520 fluorescence intensity (a.u.)

An excerpt of these results, in markdown:

| Sequence | binding signal |
| --- | --- |
| TTGCTGATGGCGCTGGTTTACTGCTCCTGAGGGGTAGGGACGGAGTCACCTAGTGCAG | 9110 fluorescence intensity (a.u.) |
| TATAGCTGTCCTCGAACCTATTCCACCGCCACGCGAGCAACGGAGTCACCTAGTGCAG | 8800 fluorescence intensity (a.u.) |
| ATCCTATAGCATGTGATAAACCCATTACTACAAAACATCACGGAGTCACCTAGTGCAG | 8200 fluorescence intensity (a.u.) |
| GCATGATATGATTCCTCCTGCTTTGATTCCAGTACATGTCCGGAGTCACCTAGTGCAG | 8840 fluorescence intensity (a.u.) |
| GAGTGACTCTCTCTTCCATACATTGTCCCAAATATTATTTCGGAGTCACCTAGTGCAG | 8970 fluorescence intensity (a.u.) |
| TGACTGACAACTTGGTCTTTTTTTTTTGATTTTGTTCTTTCGGAGTCACCTAGTGCAG | 11900 fluorescence intensity (a.u.) |
| GCATTTTTTACACAGGGAGCCACCATCATTGTCATCAGAACGGAGTCACCTAGTGCAG | 8970 fluorescence intensity (a.u.) |
| AACACTACTTGTCCTTTTCACATTGCATCATCGTTGAAACCGGAGTCACCTAGTGCAG | 9500 fluorescence intensity (a.u.) |
| AGCCCATTAAGAATCTAGCCTGCGAGCCAACCGAGAAAATCGGAGTCACCTAGTGCAG | 8060 fluorescence intensity (a.u.) |
| ATCCAGTATAGTGTTGGTGATCTTTTGTGGCTATTTAGTTCGGAGTCACCTAGTGCAG | 8590 fluorescence intensity (a.u.) |
| GTGCACCGCCGATTCTCTTATCACTCTTTTTTATCAATATCGGAGTCACCTAGTGCAG | 8520 fluorescence intensity (a.u.) |

Following part:

Sequence	binding signal
CGCTAGAAGCTTCCATTCCAAGCTCCAATCGGTCGTTGACCGGAGTCACCTAGTGCAG	9460 fluorescence intensity (a.u.)
CAGACACATACCTTTCATGCTTCAACTTTTGTATGTTTGTCGGAGTCACCTAGTGCAG	8170 fluorescence intensity (a.u.)
GCATCACCATTCTATACATCACTGTGTTCATTATGAGCTTCGGAGTCACCTAGTGCAG	10500 fluorescence intensity (a.u.)
TGCTGGTCTCCCATCGTCTATCCCGCTTCCATCTCACATTCGGAGTCACCTAGTGCAG	8860 fluorescence intensity (a.u.)
TCATCGTAATAGGATACCACATCTCGTATTCGATCATCGACGGAGTCACCTAGTGCAG	8730 fluorescence intensity (a.u.)
ATACCCTAGCATCGACGATCCTCATACCATGCAAATACCACGGAGTCACCTAGTGCAG	8240 fluorescence intensity (a.u.)
CACCTTCTTTTTCTCTCTCTCTCTCTCTCTCTTTCTCATCCGGAGTCACCTAGTGCAG	10300 fluorescence intensity (a.u.)
TATATATATATATATATATATATATATATGAGAAGGTTACCGGAGTCACCTAGTGCAG	11000 fluorescence intensity (a.u.)
CTTAACGCATTTAATATATGGTCAATTCTGTCAATCTATGCGGAGTCACCTAGTGCAG	8340 fluorescence intensity (a.u.)
TTAACTCTTTCGTCGCCATGCTATTTTTCCTTTTCTTTATCGGAGTCACCTAGTGCAG	10800 fluorescence intensity (a.u.)
GGAATATTCTCACATCTCAGCCATCCATTTTCCATCTCAACGGAGTCACCTAGTGCAG	9090 fluorescence intensity (a.u.)
GAATTCTCCATGTGTTGTGTTCGTCTTCTTCCTCCAGCTACGGAGTCACCTAGTGCAG	8650 fluorescence intensity (a.u.)
CCTGTAAGTTCTTCCGCATGTGCTAAGCTTGTGTTTTCTTCGGAGTCACCTAGTGCAG	8920 fluorescence intensity (a.u.)
ACGCGCCATCTCGCCGCTCGGTGGCTTCTTCTTCTTCTACCGGAGTCACCTAGTGCAG	10100 fluorescence intensity (a.u.)
GTAGTCTTGGTTATATCCGAGCTAGTTGTGTCCTCATCAACGGAGTCACCTAGTGCAG	9540 fluorescence intensity (a.u.)
AGAGAGGGGTGGTGGTGGACTCATTCGCGCGACCAAGTATCGGAGTCACCTAGTGCAG	9720 fluorescence intensity (a.u.)
GTTTTTTTTTTCTTCTTACTCCCTCCGTTCCATTTTAAGTCGGAGTCACCTAGTGCAG	9980 fluorescence intensity (a.u.)
CACTACAGTATTTGCAAATTTCACCCAAACACATCGGTCTCGGAGTCACCTAGTGCAG	8880 fluorescence intensity (a.u.)
TCTGATCGATCTTTACCGCTAGCTGCAGTTTTCTTGGGCGCGGAGTCACCTAGTGCAG	8100 fluorescence intensity (a.u.)
TCCTACCTGACACATCCCGATGCGTTGCCAGCTCATCCCGCGGAGTCACCTAGTGCAG	9370 fluorescence intensity (a.u.)
ATGTTTCGTGATTTCTTTTTCTTCTTCCTTGACGAGTTTTCGGAGTCACCTAGTGCAG	8360 fluorescence intensity (a.u.)
